Assay: label from the status in PepcDB records

Row | Sequence | protein production
1 | SGGVTSSIAAKFAFFPPTPPSYEVIADDSCGGRLYIPEIPRRDDVDILKLRTRCGNEIVAVYVKHSKANGTLLYSHGNAADLGQMFELFVELSNRLRVNLMGYDYSGYGQSTGQASECNTYADIEASYKCLKEKYGVEDDQLIVYGQSVGSGPTVDLASRTPNLRGVVLQCPILSGMRVLYPVKCTYWFDIYKNIDKIGSVTCPVLVIHGTADEVVDWSHGKRLWELSKEKYEPLWISGGGHCDLELYPDFIRHLKKFVVSLGNKQAEQAPT | failed
2 | MAGEIQDPFSLSFQGNSIHSGSISFGRFEKEGLSWEKRSSFSHNRYLEEVDKCSKPGSVTEMKAHFEAHFKKKGIRFPASLESQTWGVHQTSNEPDDEAVHATESFEDYRSDGSFSEDTSQSNSVCNYSHEQEKCGQGKSQCEFDEESDHCVSYDEILVNSDEVIELDEEEGGGDHGRVADLVECENLGPPEMPQEIVIQDSALVEEAGSKLDEHASKKPSNSMETPSSSVNVKPIIPNDVRVTKASTKGHDVTPKAASRRTKGSSLSSNSKTNVDAKSQKELRPKKTIESQPKSSNKTETRPPIATNRCKTSTTSSKLEMSTGSTSFRFKCSERAEKRKEFYMKLEEKIHAKKTETNQVQAKTQQKAEAEIKQFRKSLNFKATPMPSFYNIGTRPVSHNKTEPSKVAQSRSRPATSASITNRAVTRVSYKHGFEEAEMVKVMVSNRKQSAAKDSDLQKGNLMAVEMKQQIGARRSRN | failed
3 | MDPAASSCMRSLQPPAPVWGCLRNPHSEGNGASGLPHYPPTPFSFHQKPDFLATATAAYPDFSASCLAATPHSLPQEEHIFTEQHPAFPQSPNWHFPVSDARRRPNSGPAGGSKEMGTSSLGLVDTTGGPGDDYGVLGSTANETEKKSSRRRKESSDNQENRGKPEGSSKARKERTAFTKEQLRELEAEFAHHNYLTRLRRYEIAVNLDLSERQVKVWFQNRRMKWKRVKGGQPISPNGQDPEDGDSTASPSSE | not failed

Source: a protein production outcome set (Wang et al. 2014)
